# From the supplement of paper PMC8728848
# The list shows a part of the results.
# Legend:
# Assay in all cases: glycan array binding signal (z-score within array); higher = stronger binding
# Conditions in all cases: glycan notation: IUPAC condensed, linker removed
# [1] = molecular target: Neu5Ac(a2-3)Gal(b1-3)GalNAc
# Outline: (§1)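 Columns mapping to the same glycan were averaged after glycan names were converted to IUPAC-condensed notation. The data come from 3228 arrays in the Consortium for Functional Glycomics database, limited to those with an available protein sequence. Binding is reported as a within-array Z-score averaged across arrays of one protein sequence and across linkers.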
# [2] = molecular target: Neu5Ac(a2-3)Gal(b1-3)GalNAc(b1-3)Gal(a1-4)Gal(b1-4)Glc
# Outline: as §1
# [3] = molecular target: Neu5Ac(a2-3)Gal(b1-3)GalNAc(b1-4)[Neu5Ac(a2-3)]Gal(b1-4)Glc
# Outline: as §1
# [4] = molecular target: Neu5Ac(a2-3)Gal(b1-3)GalNAc(b1-4)[Neu5Ac(a2-8)Neu5Ac(a2-3)]Gal(b1-4)Glc
# Outline: as §1
# [5] = molecular target: Neu5Ac(a2-3)Gal(b1-3)GalNAc6S
# Outline: as §1
# [6] = molecular target: Neu5Ac(a2-3)Gal(b1-3)GlcNAc
# Outline: as §1
# [7] = molecular target: Neu5Ac(a2-3)Gal(b1-3)GlcNAc(b1-2)Man
# Outline: as §1
# [8] = molecular target: Neu5Ac(a2-3)Gal(b1-3)GlcNAc(b1-2)Man(a1-3)[GlcNAc(b1-4)][Neu5Ac(a2-3)Gal(b1-3)GlcNAc(b1-2)Man(a1-6)]Man(b1-4)GlcNAc(b1-4)GlcNAc
# Outline: as §1
# [9] = molecular target: Neu5Ac(a2-3)Gal(b1-3)GlcNAc(b1-2)Man(a1-3)[Neu5Ac(a2-3)Gal(b1-3)GlcNAc(b1-2)Man(a1-6)]Man(b1-4)GlcNAc(b1-4)GlcNAc
# Outline: as §1
# [10] = molecular target: Neu5Ac(a2-3)Gal(b1-3)GlcNAc(b1-3)Gal(b1-3)GlcNAc
# Outline: as §1
# [11] = molecular target: Neu5Ac(a2-3)Gal(b1-3)GlcNAc(b1-3)Gal(b1-4)GlcNAc
# Outline: as §1
# [12] = molecular target: Neu5Ac(a2-3)Gal(b1-3)GlcNAc(b1-3)GalNAc
# Outline: as §1
# [13] = molecular target: Neu5Ac(a2-3)Gal(b1-3)GlcNAc(b1-4)Gal(b1-4)Glc
# Outline: as §1
# [14] = molecular target: Neu5Ac(a2-3)Gal(b1-3)GlcNAc(b1-6)GalNAc
# Outline: as §1
# [15] = molecular target: Neu5Ac(a2-3)Gal(b1-3)GlcNAc6S
# Outline: as §1
# [16] = molecular target: Neu5Ac(a2-3)Gal(b1-3)[Fuc(a1-4)]GlcNAc
# Outline: as §1
# [17] = molecular target: Neu5Ac(a2-3)Gal(b1-3)[Fuc(a1-4)]GlcNAc(b1-3)Gal(b1-3)[Fuc(a1-4)]GlcNAc
# Outline: as §1
# [18] = molecular target: Neu5Ac(a2-3)Gal(b1-3)[Fuc(a1-4)]GlcNAc(b1-3)Gal(b1-4)[Fuc(a1-3)]GlcNAc
# Outline: as §1
# [19] = molecular target: Neu5Ac(a2-3)Gal(b1-3)[GlcNAc(b1-6)]GalNAc
# Outline: as §1
# [20] = molecular target: Neu5Ac(a2-3)Gal(b1-3)[Neu5Ac(a2-6)]GalNAc
# Outline: as §1
# [21] = molecular target: Neu5Ac(a2-3)Gal(b1-3)[Neu5Ac(a2-6)]GlcNAc(b1-3)[Fuc(a1-3)[Gal(b1-4)]GlcNAc(b1-6)]Gal(b1-4)Glc
# Outline: as §1
# [22] = molecular target: Neu5Ac(a2-3)Gal(b1-3)]Neu5Ac(a2-3)Gal(b1-4)]GlcNAc
# Outline: as §1
# Neu5Ac(a2-3)Gal(b1-4)Glc = molecular target: Neu5Ac(a2-3)Gal(b1-4)Glc
# Outline: as §1
# [23] = molecular target: Neu5Ac(a2-3)Gal(b1-4)GlcNAc
# Outline: as §1
# [24] = molecular target: Neu5Ac(a2-3)Gal(b1-4)GlcNAc(b1-2)Man
# Outline: as §1
# [25] = molecular target: Neu5Ac(a2-3)Gal(b1-4)GlcNAc(b1-2)Man(a1-3)[GlcNAc(b1-4)][Neu5Ac(a2-3)Gal(b1-4)GlcNAc(b1-2)Man(a1-6)]Man(b1-4)GlcNAc(b1-4)GlcNAc
# Outline: as §1
# [26] = molecular target: Neu5Ac(a2-3)Gal(b1-4)GlcNAc(b1-2)Man(a1-3)[Neu5Ac(a2-3)Gal(b1-4)GlcNAc(b1-2)Man(a1-6)]Man(b1-4)GlcNAc(b1-4)GlcNAc
# Outline: as §1
# [27] = molecular target: Neu5Ac(a2-3)Gal(b1-4)GlcNAc(b1-2)Man(a1-3)[Neu5Ac(a2-3)Gal(b1-4)GlcNAc(b1-2)Man(a1-6)]Man(b1-4)GlcNAc(b1-4)[Fuc(a1-6)]GlcNAc
# Outline: as §1
# [28] = molecular target: Neu5Ac(a2-3)Gal(b1-4)GlcNAc(b1-2)Man(a1-3)[Neu5Ac(a2-6)Gal(b1-4)GlcNAc(b1-2)Man(a1-6)]Man(b1-4)GlcNAc(b1-4)GlcNAc
# Outline: as §1
# [29] = molecular target: Neu5Ac(a2-3)Gal(b1-4)GlcNAc(b1-2)[Neu5Ac(a2-3)Gal(b1-4)GlcNAc(b1-4)]Man(a1-3)[GlcNAc(b1-4)][Neu5Ac(a2-3)Gal(b1-4)GlcNAc(b1-2)[Neu5Ac(a2-3)Gal(b1-4)GlcNAc(b1-6)]Man(a1-6)]Man(b1-4)GlcNAc(b1-4)GlcNAc
# Outline: as §1
# [30] = molecular target: Neu5Ac(a2-3)Gal(b1-4)GlcNAc(b1-2)[Neu5Ac(a2-3)Gal(b1-4)GlcNAc(b1-4)]Man(a1-3)[GlcNAc(b1-4)][Neu5Ac(a2-3)Gal(b1-4)GlcNAc(b1-4)Man(a1-6)]Man(b1-4)GlcNAc(b1-4)GlcNAc
# Outline: as §1
# [31] = molecular target: Neu5Ac(a2-3)Gal(b1-4)GlcNAc(b1-2)[Neu5Ac(a2-3)Gal(b1-4)GlcNAc(b1-6)]Man(a1-6)[Neu5Ac(a2-3)Gal(b1-4)GlcNAc(b1-2)Man(a1-3)]Man(b1-4)GlcNAc(b1-4)GlcNAc
# Outline: as §1
# [32] = molecular target: Neu5Ac(a2-3)Gal(b1-4)GlcNAc(b1-2)[Neu5Ac(a2-3)Gal(b1-4)GlcNAc(b1-6)]Man(a1-6)[Neu5Ac(a2-3)Gal(b1-4)GlcNAc(b1-2)Man(a1-3)][GlcNAc(b1-4)]Man(b1-4)GlcNAc(b1-4)GlcNAc
# Outline: as §1
# [33] = molecular target: Neu5Ac(a2-3)Gal(b1-4)GlcNAc(b1-3)Gal
# Outline: as §1
# [34] = molecular target: Neu5Ac(a2-3)Gal(b1-4)GlcNAc(b1-3)Gal(b1-3)GlcNAc
# Outline: as §1
# [35] = molecular target: Neu5Ac(a2-3)Gal(b1-4)GlcNAc(b1-3)Gal(b1-4)GlcNAc
# Outline: as §1
# [36] = molecular target: Neu5Ac(a2-3)Gal(b1-4)GlcNAc(b1-3)Gal(b1-4)GlcNAc(b1-2)Man(a1-3)[Neu5Ac(a2-3)Gal(b1-4)GlcNAc(b1-3)Gal(b1-4)GlcNAc(b1-2)Man(a1-6)]Man(b1-4)GlcNAc(b1-4)GlcNAc
# Outline: as §1
binder,measurement,setting,value
GS7807G-bfa-506-18-506 (Bacteroides fragilis) (protein) ASCDKFDEINTDPDATTKVTSSLLATGLLLDITSSSASKSFIYDELLAKQMAWGESMEDYQYNVFGRSGFGGYTTLINAQKMVESVSDDNVNAYDGLAHFIKAYKIFYMSMEMGDLPYEEALQGELGLVRPKYNTQKEVMNFILSDLETAYELFSTAKDFDGDPILGGSISKWKKATTAFQLKVLMHLSKKESDADLKVKERFARIVASGSLMESNEDNLQMKYADKANTVYPFHNTNTKHAGYAMLSTMLIDKFKATGDIRMFYYAKPAKAKLNEGVTADSWDAYIGTDPSLPFEQIEKAYATEQYSGFNARYTDYPSGEPVVRLGYAEQNFILAEAAVRGWISGDASAYYKKAIRAHMEFIASNTPDEEVYHHGHPITEEAIAAFLETPAIQLSGEKEEDIEKILTQRYLASFMQHPYDVYYDYRRTGYPVLPINPATNRNTMNDRLPMRWMYPKSESDYNLEHQNEALERQFGGVDDVNKLMWILQ,glycan array binding signal (z-score),[1],-0.044
same,glycan array binding signal (z-score),[2],-0.786
same,glycan array binding signal (z-score),[3],-0.428
same,glycan array binding signal (z-score),[4],0.012
same,glycan array binding signal (z-score),[5],-0.744
same,glycan array binding signal (z-score),[6],-0.636
same,glycan array binding signal (z-score),[7],2.81
same,glycan array binding signal (z-score),[8],-0.528
same,glycan array binding signal (z-score),[9],-0.478
same,glycan array binding signal (z-score),[10],-0.944
same,glycan array binding signal (z-score),[11],-0.475
same,glycan array binding signal (z-score),[12],-0.851
same,glycan array binding signal (z-score),[13],-0.981
same,glycan array binding signal (z-score),[14],-0.197
same,glycan array binding signal (z-score),[15],-0.396
same,glycan array binding signal (z-score),[16],-0.571
same,glycan array binding signal (z-score),[17],0.089
same,glycan array binding signal (z-score),[18],-0.742
same,glycan array binding signal (z-score),[19],-0.969
same,glycan array binding signal (z-score),[20],-0.671
same,glycan array binding signal (z-score),[21],-0.665
same,glycan array binding signal (z-score),[22],-0.87
same,glycan array binding signal (z-score),Neu5Ac(a2-3)Gal(b1-4)Glc,-0.792
same,glycan array binding signal (z-score),[23],-0.783
same,glycan array binding signal (z-score),[24],1.1
same,glycan array binding signal (z-score),[25],-0.522
same,glycan array binding signal (z-score),[26],-0.303
same,glycan array binding signal (z-score),[27],-0.269
same,glycan array binding signal (z-score),[28],-0.387
same,glycan array binding signal (z-score),[29],-0.526
same,glycan array binding signal (z-score),[30],-0.969
same,glycan array binding signal (z-score),[31],0.452
same,glycan array binding signal (z-score),[32],-0.872
same,glycan array binding signal (z-score),[33],-0.67
same,glycan array binding signal (z-score),[34],-0.731
same,glycan array binding signal (z-score),[35],-0.338
same,glycan array binding signal (z-score),[36],0.213

# Quoted at random: two entries already listed
binder,measurement,setting,value
GS7807G-bfa-506-18-506 (Bacteroides fragilis) (protein) ASCDKFDEINTDPDATTKVTSSLLATGLLLDITSSSASKSFIYDELLAKQMAWGESMEDYQYNVFGRSGFGGYTTLINAQKMVESVSDDNVNAYDGLAHFIKAYKIFYMSMEMGDLPYEEALQGELGLVRPKYNTQKEVMNFILSDLETAYELFSTAKDFDGDPILGGSISKWKKATTAFQLKVLMHLSKKESDADLKVKERFARIVASGSLMESNEDNLQMKYADKANTVYPFHNTNTKHAGYAMLSTMLIDKFKATGDIRMFYYAKPAKAKLNEGVTADSWDAYIGTDPSLPFEQIEKAYATEQYSGFNARYTDYPSGEPVVRLGYAEQNFILAEAAVRGWISGDASAYYKKAIRAHMEFIASNTPDEEVYHHGHPITEEAIAAFLETPAIQLSGEKEEDIEKILTQRYLASFMQHPYDVYYDYRRTGYPVLPINPATNRNTMNDRLPMRWMYPKSESDYNLEHQNEALERQFGGVDDVNKLMWILQ,glycan array binding signal (z-score),[32],-0.872
same,glycan array binding signal (z-score),[17],0.089
